{"source": "patent US7842280B2", "about": "(Case Western Reserve University, priority 2006, dated 2010)", "assay": "general procedure: Fmoc solid-phase peptide synthesis; Wang resin (aminoDOTA-loaded Wang resin; Fluka Wang resin 0.75 mmol/g); HBTU/HOBt", "settings": "conjugation step, by weight", "data": [{"substance": "Ac-PLGMWSG-DOTA", "values": [{"measurement": "conjugation yield", "value": 71, "unit": "% by weight"}]}]}
